No constants are given. Whether binding was seen depends on the method and setting. In cells and extracts the contact can be indirect. Some entries that bind do so weakly or less than the wild type.
Molecular target: PKM2 (Huh7 cells) (not stated (Huh7 cells; endogenous or transfected not told)) (UniProt P14618)
Experiment: co-IP; co-IP for HSP90, PKM2 and GSK-3β from Huh7 cells; Protein G beads, 4 °C

Amino acid sequences for entries named in this document (tags omitted).
UniProt P14618: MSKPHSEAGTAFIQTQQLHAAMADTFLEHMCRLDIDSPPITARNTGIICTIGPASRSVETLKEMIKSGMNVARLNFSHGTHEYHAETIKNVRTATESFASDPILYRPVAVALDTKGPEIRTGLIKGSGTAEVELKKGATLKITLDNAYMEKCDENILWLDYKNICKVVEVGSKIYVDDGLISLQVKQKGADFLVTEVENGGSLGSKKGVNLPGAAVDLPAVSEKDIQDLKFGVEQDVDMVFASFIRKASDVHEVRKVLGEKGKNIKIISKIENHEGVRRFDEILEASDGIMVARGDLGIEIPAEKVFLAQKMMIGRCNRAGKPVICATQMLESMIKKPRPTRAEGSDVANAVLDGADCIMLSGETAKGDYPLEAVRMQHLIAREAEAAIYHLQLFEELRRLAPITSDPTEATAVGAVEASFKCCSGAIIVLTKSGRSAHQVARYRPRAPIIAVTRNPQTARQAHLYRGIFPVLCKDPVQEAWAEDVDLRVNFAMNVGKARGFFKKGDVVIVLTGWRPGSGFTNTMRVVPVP
UniProt P49841: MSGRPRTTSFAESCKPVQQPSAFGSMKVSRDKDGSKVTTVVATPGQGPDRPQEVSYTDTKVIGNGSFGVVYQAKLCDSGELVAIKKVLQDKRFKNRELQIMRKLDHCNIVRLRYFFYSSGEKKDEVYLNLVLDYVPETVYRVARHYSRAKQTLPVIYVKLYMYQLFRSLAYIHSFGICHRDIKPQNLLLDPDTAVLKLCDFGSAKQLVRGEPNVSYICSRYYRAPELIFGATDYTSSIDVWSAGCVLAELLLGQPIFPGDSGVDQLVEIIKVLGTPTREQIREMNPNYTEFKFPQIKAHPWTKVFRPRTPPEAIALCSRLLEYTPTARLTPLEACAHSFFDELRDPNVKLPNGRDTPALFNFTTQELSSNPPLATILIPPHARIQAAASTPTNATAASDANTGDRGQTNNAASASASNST

binding: binds
Substance: Glycogen synthase kinase-3β (Huh7 cells) (from UniProt P49841 1-420) (enzyme)
